Results: the supplement of paper PMC8728848
The other results are listed elsewhere or left out.

Columns and labels:
Test in all cases: glycan array binding signal (z-score within array); higher = stronger binding
Conditions in all cases: glycan notation: IUPAC condensed, linker removed
Fuc(a1-3)GlcNAc = target: Fuc(a1-3)GlcNAc
Procedure, shortened: (§1)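 Negative Z-scores can be read as non-binding. The Z-score is calculated within each array and then averaged across arrays of one protein sequence at different concentrations or buffers and across linkers. Arrays, 3228 in all, were curated from the Consortium for Functional Glycomics database and kept only where the protein sequence was available.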

[1] = target: Fuc(a1-3)[Gal(b1-4)]Glc6S
Procedure, shortened: as §1

[2] = target: Fuc(a1-3)[Gal(b1-4)]GlcNAc
Procedure, shortened: as §1

[3] = target: Fuc(a1-3)[Gal(b1-4)]GlcNAc(b1-2)Man
Procedure, shortened: as §1

[4] = target: Fuc(a1-3)[Gal(b1-4)]GlcNAc(b1-2)Man(a1-3)[Fuc(a1-3)[Gal(b1-4)]GlcNAc(b1-2)Man(a1-6)]Man(b1-4)GlcNAc(b1-4)GlcNAc
Procedure, shortened: as §1

[5] = target: Fuc(a1-3)[Gal(b1-4)]GlcNAc(b1-2)Man(a1-3)[Fuc(a1-3)[Gal(b1-4)]GlcNAc(b1-2)Man(a1-6)]Man(b1-4)GlcNAc(b1-4)[Fuc(a1-6)]GlcNAc
Procedure, shortened: as §1

[6] = target: Fuc(a1-3)[Gal(b1-4)]GlcNAc(b1-3)Gal(b1-3)[Fuc(a1-4)]GlcNAc
Procedure, shortened: as §1

[7] = target: Fuc(a1-3)[Gal(b1-4)]GlcNAc(b1-3)Gal(b1-4)[Fuc(a1-3)]GlcNAc
Procedure, shortened: as §1

[8] = target: Fuc(a1-3)[Gal(b1-4)]GlcNAc(b1-3)Gal(b1-4)[Fuc(a1-3)]GlcNAc(b1-3)Gal(b1-4)[Fuc(a1-3)]GlcNAc
Procedure, shortened: as §1

[9] = target: Fuc(a1-3)[Gal(b1-4)]GlcNAc(b1-3)GalNAc
Procedure, shortened: as §1

[10] = target: Fuc(a1-3)[Gal(b1-4)]GlcNAc(b1-6)GalNAc
Procedure, shortened: as §1

[11] = target: Fuc(a1-3)[Gal(b1-4)]GlcNAc(b1-6)[Gal(b1-3)GlcNAc(b1-3)]Gal(b1-4)Glc
Procedure, shortened: as §1

[12] = target: Fuc(a1-3)[Gal(b1-4)]GlcNAc6S
Procedure, shortened: as §1

[13] = target: Fuc(a1-3)[Gal3S(b1-4)]Glc
Procedure, shortened: as §1

[14] = target: Fuc(a1-3)[Gal3S(b1-4)]GlcNAc
Procedure, shortened: as §1

[15] = target: Fuc(a1-3)[Gal3S(b1-4)]GlcNAc6S
Procedure, shortened: as §1

[16] = target: Fuc(a1-3)[GalNAc(b1-4)]GlcNAc
Procedure, shortened: as §1

[17] = target: Fuc(a1-3)[GalNAc(b1-4)]GlcNAc6S
Procedure, shortened: as §1

Fuc(a1-4)GlcNAc = target: Fuc(a1-4)GlcNAc
Procedure, shortened: as §1

Fuc(b1-3)GlcNAc = target: Fuc(b1-3)GlcNAc
Procedure, shortened: as §1

Gal(a1-2)Gal = target: Gal(a1-2)Gal
Procedure, shortened: as §1

Gal(a1-3)Gal = target: Gal(a1-3)Gal
Procedure, shortened: as §1

Gal(a1-3)Gal(b1-3)GlcNAc = target: Gal(a1-3)Gal(b1-3)GlcNAc
Procedure, shortened: as §1

[18] = target: Gal(a1-3)Gal(b1-3)GlcNAc(b1-2)Man
Procedure, shortened: as §1

[19] = target: Gal(a1-3)Gal(b1-3)GlcNAc(b1-2)Man(a1-3)[Gal(a1-3)Gal(b1-3)GlcNAc(b1-2)Man(a1-6)]Man(b1-4)GlcNAc(b1-4)GlcNAc
Procedure, shortened: as §1

[20] = target: Gal(a1-3)Gal(b1-3)GlcNAc(b1-3)GalNAc
Procedure, shortened: as §1

[21] = target: Gal(a1-3)Gal(b1-3)GlcNAc(b1-6)GalNAc
Procedure, shortened: as §1

[22] = target: Gal(a1-3)Gal(b1-3)[Fuc(a1-4)]GlcNAc(b1-2)Man(a1-3)[Gal(a1-3)Gal(b1-3)[Fuc(a1-4)]GlcNAc(b1-2)Man(a1-6)]Man(b1-4)GlcNAc(b1-4)GlcNAc
Procedure, shortened: as §1

Gal(a1-3)Gal(b1-4)Glc = target: Gal(a1-3)Gal(b1-4)Glc
Procedure, shortened: as §1

Gal(a1-3)Gal(b1-4)GlcNAc = target: Gal(a1-3)Gal(b1-4)GlcNAc
Procedure, shortened: as §1

B1: AntigenI/IIC123 (Streptococcus mutans), C9E3B4 (protein)
chain: MASMTGGQQMGRIHFHYFKLAVQPQVNKEIRNNNDINIDRTLVAKQSVVKFQLKTADLPAGRDETTSFVLVDPLPSGYQFNPEATKAASPGFDVTYDNATNTVTFKATAATLATFNADLTKSVATIYPTVVGQVLNDGATYKNNFTLTVNDAYGIKSNVVRVTTPGKPNDPDNPNNNYIKPTKVNKNENGVVIDGKTVLAGSTNYYELTWDLDQYKNDRSSADTIQKGFYYVDDYPEEALELRQDLVKITDANGNEVTGVSVDNYTNLEAAPQEIRDVLSKAGIRPKGAFQIFRADNPREFYDTYVKTGIDLKIVSPMVVKKQMGQTGGSYENQAYQIDFGNGYASNIIINNVPKINPKKDVTLTLDPADTNNVDGQTIPLNTVFNYRLIGGIIPADHSEELFEYNFYDDYDQTGDHYTGQYKVFAKVDITFKDGSIIKSGAELTQYTTAEVDTAKGAITIKFKEAFLRSVSIDSAFQAESYIQMKRIAVGTFENTYINTVNGVTYSSLEHHHHHH
- glycan array binding signal (z-score) (Fuc(a1-3)GlcNAc): -1.06
- glycan array binding signal (z-score) [1]: 0.785
- glycan array binding signal (z-score) [2]: 0.506
- glycan array binding signal (z-score) [3]: 0.809
- glycan array binding signal (z-score) [4]: -0.441
- glycan array binding signal (z-score) [5]: 1.75
- glycan array binding signal (z-score) [6]: 0.345
- glycan array binding signal (z-score) [7]: 1.4
- glycan array binding signal (z-score) [8]: -0.452
- glycan array binding signal (z-score) [9]: 2.23
- glycan array binding signal (z-score) [10]: 1.05
- glycan array binding signal (z-score) [11]: -0.586
- glycan array binding signal (z-score) [12]: 1.51
- glycan array binding signal (z-score) [13]: 0.248
- glycan array binding signal (z-score) [14]: 0.069
- glycan array binding signal (z-score) [15]: -0.212
- glycan array binding signal (z-score) [16]: 0.751
- glycan array binding signal (z-score) [17]: -0.191
- glycan array binding signal (z-score) (Fuc(a1-4)GlcNAc): -0.968
- glycan array binding signal (z-score) (Fuc(b1-3)GlcNAc): -0.191
- glycan array binding signal (z-score) (Gal(a1-2)Gal): -0.789
- glycan array binding signal (z-score) (Gal(a1-3)Gal): -0.4
- glycan array binding signal (z-score) (Gal(a1-3)Gal(b1-3)GlcNAc): -0.086
- glycan array binding signal (z-score) [18]: -0.167
- glycan array binding signal (z-score) [19]: 3.54
- glycan array binding signal (z-score) [20]: 1.43
- glycan array binding signal (z-score) [21]: 0.258
- glycan array binding signal (z-score) [22]: 3.25
- glycan array binding signal (z-score) (Gal(a1-3)Gal(b1-4)Glc): -0.265
- glycan array binding signal (z-score) (Gal(a1-3)Gal(b1-4)GlcNAc): -1.07
